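Luminescence from an EWS-FLI1 target-promoter (NR0B1) reporter, set against a CMV-promoter reporter, two days after silencing single genes in TC32 Ewing sarcoma cells. Each siRNA was applied at 20 nM. A z-score of the log NR0B1-over-CMV signal, less the median of siRNAs with the same seed; more negative means a stronger specific loss of the NR0B1 reporter.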

The strongest results of the screen are mostly left out here. Sequences are the guide (antisense) strand, without overhang.

strand | target gene | seed-corrected z-score
UUCGGGAUAAUCAGCUUAG | RPL36AP31 | 0.1769
UUUCUCGUCGGUUUCGAGG | RBMXL2 | -0.3276
AAUCCGUCAAAAAUGUUCC | SCN8A | -0.7301
UUUCUUAUCAAUGGGUGCC | MYL9 | 0.5153
UUCUCCUCUGCAUAGUCGG | HYPK | 1.023
UCUGCUUAUAUAACUCUGG | SYT9 | -1.905
AGAUCUUACGUUUUUGCUG | ZFAND2B | -1.18
UCUGGUUCUAGGAUCCGCU | DPF2 | -0.09056
UCAUUAGCCUAUAUUGUGC | TEKT1 | -0.05336
UCUCCUUCCAUAAAGUCGC | LOC727751 | 0.6764
UUUGGGUUUAGCGAUGCCC | LIF | 0.5345
UUCUUGAAUCCUGAGCAUG | REG1B | -0.2349
UCCAGGUCAGGGUCGAACU | TH | -0.5554
UGAGCGCACAUACUGCUGC | DDX54 | -0.08552
AGACAUACAUCACCCAUCC | MALL | -0.04012
UCUGUGACUUUGUUCAUGG | TMEM95 | -0.2758
UCUGUCUUCUUUAACGUGC | NUDT16 | -1.014
GAAGUAGACGCUGCUGUCC | BORCS8 | 0.09416
UAUCCGAUCCACAAACUCC | COL4A2 | -0.007798
UCUUGUACAGCAUAUAAUG | ITGB5 | 0.5009
AUUCCGAACAUGAAAUUCC | PAFAH2 | 0.193
UGAAAUACAGCGGAAAUUC | ASTN1 | 0.2415
UGAAUCACAGGAAAUGCUG | DEFB125 | 0.8362
UUGUCCUUUAAAGUAGCUG | IBSP | -1.33
UCCCUUAAAAUUUCCACAG | ACSM3 | -0.5593
AUCAGUACCUUUUCUUAGC | GBP2 | 0.9254
UAUGAGUCCACCAGGUUGC | DNM2 | -0.1955
AACAGGAUGACAAAUGCCC | TMEM55B | -1.342
AUAGGAAAAUCUGUGGUGG | CD300A | -0.3862
UAUCGUCUGAAGAAAUUGC | MINOS1 | -1.261
UUUACGGUAAGGAUCACGC | ACAN | 0.09723
UAAUCUGCACUACCAUAGC | FLG | -1.572
AGAAGUUUGGGUAUAGUGG | OR52M1 | -0.4567
UUGUUAUUGACAGAACAGC | FAM120AOS | 0.8977
UUUAUCGAAAUUUUCUCGG | NEB | 0.6149
UCAUAGUUUUCUCCACUGC | PLG | 0.7509
UUGCAUCUCAGCAUGAUCC | RASAL2 | -0.801
UGUAGGACAUCCAAGAUGC | DOCK3 | 0.6087
UCUGGUUGUAGUCCGGACU | DISP2 | 0.8148
AUUAUUAUCGCUUAGAUUC | FSHR | 0.47
UCAGUGGCUCUUGAACCUC | ASCL5 | -0.6921
UGCAGAUCCAUAUCUGGGU | TTLL10 | 0.2985
UUACUAUUUUCCGAACACC | DHX36 | 0.6571
UUCUCAAGAGGUAUAAUUC | CYTH4 | 0.7092
UUAUUCUCUUGGUCUGUCC | PPP1R16B | -0.5618
UUGCAGAUCGAUAUCGUCC | TSPAN14 | 0.0594
UGAGCUGUUCCAGAGAUCC | ERCC1 | -1.89
UGCAGUUGGAUCUCAGGCC | SHBG | 1.422
UCGAGUUACAAGAUCAUCC | STX8 | 0.09118
GGAGCAGUAACAUCUAUCU | AHNAK | -1.637
AUUUUGGUUACAUUUGAGG | EBF1 | 0.5907
UCUUUAACCUGCUCCAUCC | HES2 | -0.1684
AGUGUAUCCAGAGGUAAAC | SNRPD1 | -1.538
UUGCUGUCCAGUGAACAGA | TRPM5 | 0.3875
UUGCGGAGUGGGAAUGUGG | ARPP19 | 0.6358
UGAUCGUUCACAGCUGCAU | EMC9 | 0.9508
UUCAUAGUCUGGUACUUCC | C5orf22 | -0.2515
UUUGAGAACCACACGUGCC | SRP9P1 | -0.667
AAGGUUGUUGUCCUCAUCC | SPARC | 0.5933
AAAACAUCCAAAAAUCUCC | ACOX3 | -0.3586
UUCUUCCGACUUUAUAUCG | DCLK1 | -0.02661
AAUUCAUGAACAACAAUCC | TLL1 | 0.9335
UAUGUCUCCAUGGAGGUAC | MKRN3 | -0.2243
UCCUGAUUCACCCUCAGCC | ARHGEF4 | -0.8676

Repeated from the top, 5 entries:

| strand | target gene | seed-corrected z-score |
|---|---|---|
| `UUCGGGAUAAUCAGCUUAG` | RPL36AP31 | 0.1769 |
| `UUUCUCGUCGGUUUCGAGG` | RBMXL2 | -0.3276 |
| `AAUCCGUCAAAAAUGUUCC` | SCN8A | -0.7301 |
| `UUUCUUAUCAAUGGGUGCC` | MYL9 | 0.5153 |
| `UUCUCCUCUGCAUAGUCGG` | HYPK | 1.023 |

The results are deposited in PubChem (AID1159506; NCATS, 2015).